The assay has as its target TAP-tagged Wdr70 of S. pombe (S. pombe). Kind of assay: affinity purification with mass spectrometry; TAP-tagged spWdr70 from S. pombe with Ddb1 deleted; soluble extract bound to rabbit IgG Dynabeads, TEV cleavage, gradient SDS-PAGE, gel bands identified by MALDI-TOF.

Here are results for one molecule from publication PMC10688980.

These are yes or no findings as the source states them, for the method shown. Binding seen in cells or lysates may run through a third protein. A yes stands for co-enrichment or nearness to the bait. Other partners may have been found.

B1: Pcu4 (Cullin4 homolog) (protein, UniProt O14122 1-734)
chain: MPPEAKRIVVKGFDPRKSRQRQETYYVTMIDRLNMALQVVMAGLGLKTGYQELYSGVENLTRADQASRCFNILQHHMSSGIQLLKDSAESFIQLEGTETDTNACTVVVGCWNKWLERVEIVQNIFYYMDKTFLSHHPDYPTIEELSLSLFREKLMAVKNIQIPFLNSLLQSFENLHSSKSTDHAYLQDAMLMLHRTEMYSSVFVPMYLVMLSRFYDTESSQKIQELPLEEYLEYAMSSLEREDAYVEKFDIVRDKKSIRETVQRCLITSHLDTLTKGISQFIEKRDAHSCKLLYALLQFNHETEYLIQPWSDCLVDVGFKLVNDESKDDTLVQELLSFHKFLQVVVDESFLHDETLSYAMRKAFETFINGAKGSQREAPARLIAKYIDYLLRVGEQASGGKPLKEVFSEILDLFRYIASKDIFEAYYKLDIAKRLLLNKSASAQNELMLLDMLKKTCGSQFTHSLEGMFRDVNISKEFTSSFRHSKAAHNLHRDLYVNVLSQAYWPSYPESHIRLPDDMQQDLDCFEKFYLSKQVGKKISWYASLGHCIVKARFPLGNKELSISLFQACVLLQFNNCLGGEGISYQDLKKSTELSDIDLTRTLQSLSCARIRPLVMVPKSKKPSPDTMFYVNEKFTDKLYRVKINQIYLKEERQENSDVQEQVVRDRQFELQASIVRVMKQKEKMKHDDLVQYVINNVKDRGIPLVSDVKTAIEKLLEKEYLEREDNDIYTYVT
B1: the binding entry is reported as “binds”.
